Experimental data taken from PMC9843532.
Results are given in words; binding and its absence hold for the method and conditions named. In cells and extracts the contact can be indirect. Some entries that bind do so weakly or less than the wild type.

Target: T1, LNK (human (endogenous in primary erythroblasts)), Q9UQQ2
T1 chain: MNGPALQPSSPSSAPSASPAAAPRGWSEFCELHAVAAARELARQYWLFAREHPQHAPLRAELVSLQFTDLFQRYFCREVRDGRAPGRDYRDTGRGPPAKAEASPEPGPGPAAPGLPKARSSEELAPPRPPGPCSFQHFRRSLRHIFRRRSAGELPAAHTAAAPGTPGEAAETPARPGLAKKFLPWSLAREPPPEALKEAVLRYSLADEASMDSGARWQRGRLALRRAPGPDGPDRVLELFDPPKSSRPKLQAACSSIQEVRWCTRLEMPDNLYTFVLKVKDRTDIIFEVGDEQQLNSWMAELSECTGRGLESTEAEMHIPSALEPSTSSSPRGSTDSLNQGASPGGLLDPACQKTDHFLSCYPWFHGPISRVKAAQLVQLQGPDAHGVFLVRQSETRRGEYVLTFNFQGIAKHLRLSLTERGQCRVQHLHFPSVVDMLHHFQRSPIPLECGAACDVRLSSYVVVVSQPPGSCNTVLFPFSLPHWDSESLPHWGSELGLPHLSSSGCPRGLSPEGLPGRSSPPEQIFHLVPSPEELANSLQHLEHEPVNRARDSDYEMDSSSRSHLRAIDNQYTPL
Experiment: co-IP; endogenous proteins in lysates of human primary erythroblasts after DMSO or 0.5 μM ACY-1215 exposure; IP buffer with 1% NP40, 150 mM NaCl, 5 mM EDTA, Tris HCl pH 8; antibody against 14-3-3ζ or LNK (2 μg) overnight at 4°C, μMACS Protein G Microbeads; partner detected by immunoblot
Conditions: remark: other sources report otherwise

binding: binds
B1: JAK2, O60674 1-1132 (protein)
chain: MGMACLTMTEMEGTSTSSIYQNGDISGNANSMKQIDPVLQVYLYHSLGKSEADYLTFPSGEYVAEEICIAASKACGITPVYHNMFALMSETERIWYPPNHVFHIDESTRHNVLYRIRFYFPRWYCSGSNRAYRHGISRGAEAPLLDDFVMSYLFAQWRHDFVHGWIKVPVTHETQEECLGMAVLDMMRIAKENDQTPLAIYNSISYKTFLPKCIRAKIQDYHILTRKRIRYRFRRFIQQFSQCKATARNLKLKYLINLETLQSAFYTEKFEVKEPGSGPSGEEIFATIIITGNGGIQWSRGKHKESETLTEQDLQLYCDFPNIIDVSIKQANQEGSNESRVVTIHKQDGKNLEIELSSLREALSFVSLIDGYYRLTADAHHYLCKEVAPPAVLENIQSNCHGPISMDFAISKLKKAGNQTGLYVLRCSPKDFNKYFLTFAVERENVIEYKHCLITKNENEEYNLSGTKKNFSSLKDLLNCYQMETVRSDNIIFQFTKCCPPKPKDKSNLLVFRTNGVSDVPTSPTLQRPTHMNQMVFHKIRNEDLIFNESLGQGTFTKIFKGVRREVGDYGQLHETEVLLKVLDKAHRNYSESFFEAASMMSKLSHKHLVLNYGVCVCGDENILVQEFVKFGSLDTYLKKNKNCINILWKLEVAKQLAWAMHFLEENTLIHGNVCAKNILLIREEDRKTGNPPFIKLSDPGISITVLPKDILQERIPWVPPECIENPKNLNLATDKWSFGTTLWEICSGGDKPLSALDSQRKLQFYEDRHQLPAPKWAELANLINNCMDYEPDFRPSFRAIIRDLNSLFTPDYELLTENDMLPNMRIGALGFSGAFEDRDPTQFEERHLKFLQQLGKGNFGSVEMCRYDPLQDNTGEVVAVKKLQHSTEEHLRDFEREIEILKSLQHDNIVKYKGVCYSAGRRNLKLIMEYLPYGSLRDYLQKHKERIDHIKLLQYTSQICKGMEYLGTKRYIHRDLATRNILVENENRVKIGDFGLTKVLPQDKEYYKVKEPGESPIFWYAPESLTESKFSVASDVWSFGVVLYELFTYIEKSKSPPAEFMRMIGNDKQGQMIVFHLIELLKNNGRLPRPDGCPDEIYMIMTECWNNNVNQRPSFRDLALRVDQIRDNMAG
